{"source": "PubChem BioAssay AID2685", "about": "(National Center for Advancing Translational Sciences (NCATS), 2010)", "note": "About 2,100 (0.66%) of roughly 320,000 compounds were called active. The inconclusive results got no clear call from the source; some entries with a clear call stand among them for comparison. Calls follow the shape of the dose curve; as a rule, active = well fitted inhibition curve with a large enough effect in the signal ratio, with a control signal flat (not every such curve was filed as active); inconclusive = small, poorly fitted or top-dose-only effect, or effect the other way, or a change in a side signal; inactive = flat fitted curve, though single readings scatter; the % refers to the signal ratio. Potencies beside an inconclusive call are fits to weak or partial responses and may not hold up. % is scaled to controls: 0 for no effect and ±100 for the full control effect; potency is read from the fitted curve at half-maximal effect.", "data": [{"assay": "qHTS Assay for Lipid Storage Modulators in Drosophila S3 Cells", "details": "BODIPY lipid droplet fluorescence, 18-24 h, cells fed with added oleic acid; lipid storage change, negative = inhibition: at 46.1 µM (top of the series) unless noted", "method_in_brief": "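Laser-scanning cytometry quantifies lipid droplet accumulation (500–530 nm total intensity; droplet/cell object ratio) in oleic acid-fed (400 uM added) Drosophila S3 cells treated with a concentration series. 20 uM Triacsin C defined 100% inhibition.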", "values": [{"smiles": "CCc1ccc(C(C)NC(=S)NCc2ccc(F)cc2)cc1", "note": "(centres undefined)", "lipid storage change, negative = inhibition": "inconclusive: -28.3%"}, {"smiles": "COc1ccc(OC)c(C2C3=C(CCCC3=O)NC3=C2C(=O)CCC3)c1", "lipid storage change, negative = inhibition": "inconclusive: -54.6%"}, {"smiles": "CSCc1c(C(=O)NCCc2ccccn2)oc2ccccc12", "Potency": "inconclusive: 29.1 µM [activator, single point]"}, {"smiles": "CCOC(=O)c1c(NC(=O)c2cc(-c3cccc(O)c3)on2)sc(C(C)=O)c1C", "lipid storage change, negative = inhibition": "inconclusive: 22.4%"}, {"smiles": "COc1ccccc1NC(=O)c1ccc2nc(C)c(C)nc2c1", "Potency": "inconclusive: 6.51 µM [falling, partial curve, poor fit]"}, {"smiles": "CCCCn1c(SCC(=O)NCc2ccc3c(c2)OCO3)nnc1C(CC)N(C)C", "note": "(centres undefined)", "lipid storage change, negative = inhibition": "inconclusive"}, {"smiles": "Cc1nn2c(N3CCN(C4CCCC4)CC3)cc(C(C)(C)C)nc2c1-c1ccccc1", "lipid storage change, negative = inhibition": "inconclusive: -181%"}, {"smiles": "O=C1OC(C(=O)Nc2ccccc2)Cc2ccccc21", "note": "(centres undefined)", "Potency": "inconclusive: 6.51 µM [cytotoxic, single point]"}, {"smiles": "CN(Cc1cccc(Cl)c1)C(=O)C1CCN(C(=O)Nc2ccccc2)CC1", "Potency": "inconclusive: 6.51 µM [cytotoxic, single point]"}, {"smiles": "O=S(=O)(/N=C(/c1ccccc1)N1CCOCC1)c1ccc(Br)cc1", "lipid storage change, negative = inhibition": "inconclusive: -15.1%"}, {"smiles": "CC(C)(C)NC(=O)NC(=O)COC(=O)Cc1coc2ccc3ccccc3c12", "lipid storage change, negative = inhibition": "inconclusive: -25.3%"}, {"smiles": "CC12COC3(P(=O)(c4ccccc4)c4ccccc4)CC1CCC23CP(=O)(c1ccccc1)c1ccccc1", "note": "(centres undefined)", "lipid storage change, negative = inhibition": "inconclusive: -4.13%"}, {"smiles": "CC(=O)c1cccc(NC(=O)C(OC(=O)c2cccs2)c2ccccc2)c1", "note": "(centres undefined)", "Potency": "inconclusive: 0.0065 µM [falling, full curve, poor fit]"}, {"smiles": "O=C(CC(c1ccccc1)c1ccccc1)NCc1cccnc1", "lipid storage change, negative = inhibition": "inactive"}, {"smiles": "Cc1cc2nc(/C=C/c3cccnc3)[nH]c2cc1C", "lipid storage change, negative = inhibition": "inconclusive: -7.76%"}, {"smiles": "O=C(c1ccc2ccccc2n1)N1CCN(c2ccccn2)CC1", "lipid storage change, negative = inhibition": "inconclusive: 6.59%"}, {"smiles": "O=S(=O)(NCc1ccccc1)c1ccc(S(=O)(=O)N(Cc2ccccn2)C2CCCC2)cc1", "lipid storage change, negative = inhibition": "inconclusive: -16.8%"}, {"smiles": "CC(=O)c1cccc(NC(=O)/C(=C\\c2cccnc2)NC(=O)c2ccc(C)cc2)c1", "Potency": "inconclusive: 29.1 µM [activator, partial curve]"}, {"smiles": "O=C(CNC(=O)c1cccc(Br)c1)N/N=C/c1cccnc1", "lipid storage change, negative = inhibition": "inconclusive: 62.8%"}, {"smiles": "c1cncc(CNc2c3c(nc4nnnn24)CCCC3)c1", "Potency": "inconclusive: 2.59 µM [activator, partial curve, poor fit]"}, {"smiles": "Cc1cccc(N2CCN(C(=O)C3CCN(S(=O)(=O)c4cccc5cccnc45)CC3)CC2C)c1", "note": "(centres undefined)", "lipid storage change, negative = inhibition": "inconclusive: 8.52% [at 9.22 µM]"}, {"smiles": "O=C(N/N=C/C=C\\c1ccccc1[N+](=O)[O-])c1ccco1", "Potency": "inconclusive: 1.84 µM [rising, full curve]"}, {"smiles": "COCC1CCN(Cc2nc(Cc3ccccc3Cl)no2)CC1", "lipid storage change, negative = inhibition": "inconclusive: 15.3%"}, {"smiles": "C/C(CC(=O)Nc1ccc2c(c1)OCCO2)=N\\NC(=O)Cc1ccccc1", "lipid storage change, negative = inhibition": "inconclusive: 17.1%"}, {"smiles": "CCN1CCN(Cc2ccc(NC(=O)c3ccc(C)c(NC(=O)c4cccc(-c5cn[nH]c(=O)c5)c4)c3)cc2C(F)(F)F)CC1", "lipid storage change, negative = inhibition": "inconclusive: 313%"}, {"smiles": "CCOC(=O)c1ccc(N2C(=O)C(O)=C(C(C)=O)C2c2ccc(O)c(OC)c2)cc1", "note": "(centres undefined)", "Potency": "inconclusive: 29.1 µM [falling, partial curve, poor fit]"}, {"smiles": "CC(C)CC(=O)Nc1cccc(-c2csc(-c3ccccc3)n2)c1", "Potency": "inconclusive: 20.6 µM [falling, single point]"}, {"smiles": "COc1ccc(OC)c(NC(=O)c2nc(-c3ccccc3)oc2C)c1", "lipid storage change, negative = inhibition": "inconclusive: -10.6%"}, {"smiles": "O=C1CC(c2ccco2)CC(O)=C1C=NCCO", "note": "(centres undefined)", "lipid storage change, negative = inhibition": "inconclusive: 4.51%"}, {"smiles": "C=CCSc1nc(O)c(C2OC(=O)c3c2ccc(OC)c3OC)c(=O)n1-c1ccccc1", "note": "(centres undefined)", "Potency": "inconclusive: 29.1 µM [activator, single point]"}, {"smiles": "COc1ccccc1/C=C/CN1CCNC(=O)C1CC(=O)NCCc1cnccn1", "note": "(centres undefined)", "Potency": "inconclusive: 29.1 µM [falling, single point]"}, {"smiles": "COCc1cc(C(C)=O)ccc1OCC(=O)Nc1ccc(NC(C)=O)cc1", "lipid storage change, negative = inhibition": "inconclusive: -4.08%"}, {"smiles": "CC1CCN(c2nc(-c3ccccc3)c(C#N)c(=O)[nH]2)CC1", "Potency": "inconclusive: 0.82 µM [activator, partial curve]"}, {"smiles": "CNc1nc2[nH]c(=O)c3c(c2s1)OC(N)=C(C#N)C3c1ccccc1", "note": "(centres undefined)", "lipid storage change, negative = inhibition": "inconclusive: 12.9%"}, {"smiles": "COc1ccc(CNC2CCCCC2)cc1", "lipid storage change, negative = inhibition": "inconclusive: -82%"}, {"smiles": "O=c1n(Cc2ccccc2F)c2ccccc2n1Cc1ccccc1F", "lipid storage change, negative = inhibition": "inconclusive: -23.6%"}, {"smiles": "Cc1ccc(S(=O)(=O)N2CCC(=O)N(CCOC(=O)Nc3ccc(C)c(C)c3)CC2)cc1", "Potency": "inconclusive: 10.3 µM [activator, partial curve, poor fit]"}, {"smiles": "CC1CN(C(=O)CCN2C(=O)c3ccccc3C2=O)CC(C)O1", "note": "(centres undefined)", "lipid storage change, negative = inhibition": "inactive"}, {"smiles": "CCOC(=O)/C=C/[C@H]1CC2(CCO1)SCCCS2", "Potency": "inconclusive: 3.66 µM [activator, single point]"}, {"smiles": "CC(=O)N1CCc2cc(C(=O)CN3CCN(C(=O)c4ccco4)CC3)ccc21", "lipid storage change, negative = inhibition": "inconclusive: 3.69% [at 9.22 µM]"}, {"smiles": "CCOC(=O)C1CCN(C(=O)c2ccc(Cl)c(NC3=NC4CS(=O)(=O)CC4S3)c2)CC1", "note": "(centres undefined)", "lipid storage change, negative = inhibition": "inconclusive: 3.41%"}, {"smiles": "O=C(NC1CCCCC1)/C(=N\\O)c1ccccn1", "Potency": "inconclusive: 4.11 µM [falling, full curve, poor fit]"}, {"smiles": "O=C(CSc1nnc(Cn2nnc3ccccc32)o1)N(Cc1ccc(F)cc1)c1ccccc1", "lipid storage change, negative = inhibition": "inconclusive: -22%"}, {"smiles": "Cc1c(Br)c([N+](=O)[O-])nn1CC(=O)NCCc1ccc(Cl)cc1", "lipid storage change, negative = inhibition": "inconclusive: -49.7% [at 0.00295 µM]"}, {"smiles": "CCOc1ccc(C(=O)NCC(=O)NCCOc2ccc(C)cc2)cc1", "Potency": "inconclusive: 29.1 µM [falling, single point]"}, {"smiles": "Cc1nnc(NC(=O)CC(CN(C)S(=O)(=O)c2ccccc2)c2ccccc2)s1", "note": "(centres undefined)", "lipid storage change, negative = inhibition": "inconclusive: -18.5%"}, {"smiles": "CCCC(=O)Nc1ccc2c(c1)nc(CCN1CCN(c3ccccn3)CC1)n2C", "lipid storage change, negative = inhibition": "inconclusive: 30.6%"}, {"smiles": "C[C@]12CC(O)C3C(CCC4=CC(=O)CC[C@@]43C)C1CCC2c1csc(-c2ccccc2)n1", "note": "(some centres undefined)", "lipid storage change, negative = inhibition": "inconclusive: 23.7%"}, {"smiles": "COc1ccc2c(c1)CC/C(=C/c1ccccn1)C2=O", "Potency": "inconclusive: 0.13 µM [falling, full curve, poor fit]"}, {"smiles": "CCc1ccccc1NC(=O)CSc1nnc(Cn2cnc3ccccc32)o1", "lipid storage change, negative = inhibition": "inactive"}, {"smiles": "COc1ccc2oc(=O)c(C(=O)C[n+]3cccc(C)c3)cc2c1", "lipid storage change, negative = inhibition": "inconclusive: -76.9%"}, {"smiles": "CCOC(=O)c1[nH]c2ccc(F)cc2c1NC(=O)CN1CCc2cc(OC)c(OC)cc2C1", "Potency": "inconclusive: 2.31 µM [activator, partial curve]"}, {"smiles": "O=C(Nc1ccc2ccccc2c1)[C@@H]1C[C@H]1[C@@H](NP(=O)(c1ccccc1)c1ccccc1)c1ccccc1", "lipid storage change, negative = inhibition": "inconclusive: -0.496%"}, {"smiles": "CCc1c(C(=O)NC2CCCc3ccccc32)[nH]c(C)c1C(C)=O", "note": "(centres undefined)", "lipid storage change, negative = inhibition": "inconclusive: 166%"}, {"smiles": "Cc1ccccc1S(=O)(=O)c1c(C)cc(C)n(C(C)C)c1=O", "lipid storage change, negative = inhibition": "inconclusive: -19.9%"}, {"smiles": "Cc1cccc(/C=N/NC(=O)NC23CC4CC(CC(C4)C2)C3)n1", "Potency": "inconclusive: 0.259 µM [activator, full curve, poor fit]"}, {"smiles": "CCOc1ncccc1C(=O)OCC(=O)NCCc1ccc(S(N)(=O)=O)cc1", "lipid storage change, negative = inhibition": "inconclusive: 12.6%"}, {"smiles": "COCCn1c(N2CCCC2)nc2c1c(=O)[nH]c(=O)n2C", "lipid storage change, negative = inhibition": "inconclusive: -42%"}, {"smiles": "Cc1cc(C(=O)Nc2ccncc2)c2ccccc2n1", "Potency": "inconclusive: 9.2 µM [falling, single point]"}, {"smiles": "Cc1ccc(C(=O)Nc2cc(S(=O)(=O)N3CCOCC3)ccc2N2CCCC2)cc1", "lipid storage change, negative = inhibition": "inconclusive: -26.9%"}, {"smiles": "CC(=O)Nc1nc2ccccc2n1Cc1ccccc1C", "lipid storage change, negative = inhibition": "inconclusive: 37.9%"}, {"smiles": "Cc1nc2cc(C(F)(F)F)ccc2n1CCNc1nc(-c2ccc([N+](=O)[O-])c(Cl)c2)cs1", "Potency": "inconclusive: 25.9 µM [falling, single point]"}, {"smiles": "CN(C)c1cccc(C(=O)NNC(=O)CSc2ccccc2)c1", "Potency": "inconclusive: 6.51 µM [activator, single point]"}, {"smiles": "Nc1ccc(NC(=O)c2ccccc2)c2c1C(=O)c1ccccc1C2=O", "lipid storage change, negative = inhibition": "inconclusive: -8.26%"}, {"smiles": "O=C(C(Cl)c1ccccc1)N1CCOCC1", "note": "(centres undefined)", "lipid storage change, negative = inhibition": "inconclusive: -13.2%"}, {"smiles": "CCOC1=NN(c2ncc(C(F)(F)F)cc2Cl)C(=O)C1", "lipid storage change, negative = inhibition": "inconclusive: -33.9%"}, {"smiles": "CCOC(=O)c1c(C)[nH]c(C(=O)N2CCN(CC)CC2)c1C", "lipid storage change, negative = inhibition": "inconclusive: -6.2%"}, {"smiles": "COc1cc(OC)c2c(C)c(Cl)c(=O)oc2c1", "lipid storage change, negative = inhibition": "inconclusive: 35%"}, {"smiles": "Cc1nc(SCC(=O)N2CCN(C(=O)c3ccco3)CC2)c2c(C)c(C)sc2n1", "lipid storage change, negative = inhibition": "inconclusive: 14.5%"}, {"smiles": "Cc1c(NC(=S)NC(=O)c2sc3ccccc3c2Cl)cccc1C(=O)O", "lipid storage change, negative = inhibition": "inconclusive: 8.17%"}, {"smiles": "CN(C)CCN(C(=O)CCS(=O)(=O)c1ccccc1)c1nc2cc3c(cc2s1)OCO3", "lipid storage change, negative = inhibition": "inconclusive: -29.6%"}, {"smiles": "COc1ccc(-c2nnn(CC(=O)N(C3CCCCC3)C(C)C(=O)NC3CCCC3)n2)cc1OC", "note": "(centres undefined)", "Potency": "inconclusive: 8.2 µM [activator, partial curve]"}, {"smiles": "COCCn1c(SCc2nc3sc(C(=O)OC)c(C)c3c(=O)[nH]2)nc2ccccc21", "Potency": "inconclusive: 4.61 µM [falling, partial curve, poor fit]"}, {"smiles": "CSc1nc(-c2ccccc2)nn1S(=O)(=O)c1ccc(Cl)cc1", "lipid storage change, negative = inhibition": "inconclusive: -10.6%"}]}]}
